Tested on: Trichophyton rubrum
Assay: Antifungal assay, Trichophyton rubrum (optical density)
Type: cell-based
Conditions: 72 h at 28 °C
Protocol: Trichophyton rubrum. The substances were dissolved in DMSO to a concentration of 10 mM and transferred into a 96-well microtiter plate. For screening purposes, the compounds were tested in a final concentration of 100 μM. For inoculation 5 × 10^4 spores mL^−1 from the fungal strain T. rubrum diluted in Sabouraud medium (1.0% peptone, 2.0% glucose·H2O, pH = 5.6) were added to the microtiter plate. After incubation for 72 h at 28 °C the optical density was measured.

Compound: Clc1ccccc1C(c1ccccc1)(c1ccccc1)n1ccnc1 [Clotrimazole, reference compound]
- IC50: 0.2 µM
